From PubChem BioAssay AID1688 (National Center for Advancing Translational Sciences (NCATS), 2009)
In all, about 220,000 compounds went through this assay and about 2,400 (1.1%) were called active. Inconclusive results, whose numbers are uncertain, are shown with a selection of clear calls. Calls come from the whole dose curve; as a rule, active = well fitted inhibition curve with a large enough effect; inconclusive = small, poorly fitted or top-dose-only effect, or effect the other way; inactive = no such curve, though single readings can be large or run the other way. A potency beside an inconclusive call is a rough fit, not a confirmed value.

Assay: qHTS Multiplex Assay to Identify Dual Action Probes in a Cell Model of Huntington: Aggregate Formation (GFP); note: nearly all actives have a fitted effect of over 60% in size
Details: PC12 HttQ103-GFP aggregates, Acumen cytometry, 40 h; activity change, negative = inhibition: at 46.1 µM (top of the series) unless noted
In short: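 Multiplexed with ATP-based cell death, this channel scores GFP aggregates in PC12 cells expressing inducible HTTex1-Q103-GFP. Induction used 100 nM tebufenozide; compounds were tested in concentration series.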
% is set by controls: 0 for no effect and ±100 for the full control effect; potency is the fitted concentration of half-maximal effect.

SMILES	Potency	activity change, negative = inhibition
O=C(Cc1ccc(Cl)cc1)Nc1ncc([N+](=O)[O-])s1	inconclusive: 20 µM [inhibitor, single point]	
Cc1ccc(C)c(NC(=O)CSc2nnc(Cc3cccn3C)n2-c2ccc(F)cc2)c1	inconclusive: 0.891 µM [activator, full curve]	
Cc1ccc(Cn2nnnc2CN2CCC(O)(c3cccnc3)CC2)cc1		inactive: -3.66% [at 9.22 µM]
Cc1ccc(-c2nn(-c3ccccc3)cc2/C=C/C(=O)Nc2cccc(S(N)(=O)=O)c2)cc1	inconclusive: 7.94 µM [inhibitor, partial curve]	
O=C(CN1CCN(S(=O)(=O)c2ccc(Cl)cc2)CC1)Nc1ccc(N2CCOCC2)cc1	inconclusive: 35.5 µM [activator, single point]	
CCC(C(=O)Nc1nc(C)c(C(=O)OC)s1)c1ccccc1 (centres undefined)		inactive: -7.05% [at 9.22 µM]
c1ccc(Sc2nc(N3CCCCC3)nc(N3CCCCC3)n2)nc1	inconclusive: 35.5 µM [inhibitor, single point]	
CC(C)CNC(=S)N1CCN(C(c2ccccc2)c2ccccc2)CC1	inconclusive: 35.5 µM [inhibitor, single point]	
COc1ccc(-c2ocnc2C(=O)N2CCN(C(c3ccccc3)c3ccccc3)CC2)cc1	inconclusive: 35.5 µM [inhibitor, single point]	
Fc1ccc2nc(Nc3nc4c(F)cc(F)cc4s3)sc2c1	inconclusive: 3160 µM [inhibitor, partial curve, poor fit]	
O=C(CN(c1ccc(Br)cc1)S(=O)(=O)c1ccc(Cl)c([N+](=O)[O-])c1)NCCc1ccccc1	inconclusive: 0.501 µM [activator, full curve, poor fit]	
CCN(Cc1cc(=O)n2ccsc2n1)c1cccc2ccccc12	inconclusive: 35.5 µM [activator, single point]	
Fc1cccc(NC(=S)NNc2c3ccccc3nc3ccccc23)c1	inconclusive: 25.1 µM [inhibitor, single point]	
Cc1nc2nc(-c3ccccc3)[nH]n2c(=O)c1Cc1ccccc1	inconclusive: 6.31 µM [inhibitor, partial curve]	
Cc1cc(Oc2ccc(C#N)cc2)nc(NCc2ccccc2)n1	inconclusive: 7.08 µM [inhibitor, partial curve]	
CC1=C(C(=O)N(C)C)C(c2cccc(Cl)c2)NC(=O)N1 (centres undefined)	active: 3.98 µM	
Cc1[nH]n(-c2ccccc2)c(=O)c1C=Nc1cccc2cccnc12	inconclusive: 0.794 µM [inhibitor, full curve]	
CCOC(=O)N(CC)OC(=O)Nc1ccc(Cl)cc1		inactive: -14.5%
COC(=O)c1cc(NC(=O)CN(c2cccc(OC)c2)S(=O)(=O)c2ccccc2)ccc1Cl	inconclusive: 5.62 µM [inhibitor, single point]	
CN(c1ccc(O)cc1)c1nc(-c2cccs2)cs1		inactive: 15% [at 9.22 µM]
Cc1ccc(NC(=O)CNC(=O)c2cccs2)cc1S(=O)(=O)Nc1ccc(Cl)cc1		inactive: -15.4%
Cc1ccnc(NC(=O)C2CCC(CNc3c(N4CCCC4)c(=O)c3=O)CC2)c1 (centres undefined)		inactive: -18.9%
Nc1nc2ccc(Oc3ccccc3)cc2s1	inconclusive: 35.5 µM [inhibitor, single point]	

SMILES	Potency	activity change, negative = inhibition
CC(C)n1c(O)c(/C=C2\C=NN=C2c2ccccc2)sc1=S		inactive: -19.2% [at 9.22 µM]
CCN(CC)c1ccc2oc(=O)c(C)nc2c1	inconclusive: 35.5 µM [inhibitor, single point]	
Cc1nc2ccccc2c2oc(C(=O)NCc3ccccn3)cc12	inconclusive: 0.562 µM [inhibitor, full curve, poor fit]	
Cn1c(=O)c2c(nc(NCc3ccc4c(c3)OCO4)n2Cc2ccccc2F)n(C)c1=O	inconclusive: 12.6 µM [inhibitor, partial curve]	
CNc1nc(SCc2ccc(C)cc2)nc2c1CCCC2	inconclusive: 0.562 µM [inhibitor, full curve, poor fit]	
O=C(CN1CCN(S(=O)(=O)c2ccc(Cl)cc2)CC1)Nc1ccc2c(c1)OCCO2		inactive: 5.27%
Cc1nn(Cc2cccc(C(=O)N3N=C(C(F)F)CC3(O)C(F)F)c2)c(C)c1[N+](=O)[O-] (centres undefined)	inconclusive: 11.2 µM [inhibitor, partial curve]	
O=C(NCCc1c[nH]c2ccccc12)c1cc2sccc2n1Cc1ccccc1		inactive: 3.36% [at 9.22 µM]
CCCN(CCC)C(=O)CC(c1ccccc1)c1ccc(C)cc1O (centres undefined)	inconclusive: 17.8 µM [inhibitor, single point]	
CC(C)(C)c1nc2cc(Cl)c([N+](=O)[O-])cc2o1		inactive: 25.3% [at 9.22 µM]
CCN(CC(=O)Nc1ccccc1OC)CC(=O)Nc1ccccc1-c1ccccc1	inconclusive: 35.5 µM [inhibitor, single point]	
O=C(CSc1nnc(COc2cccc3cccnc23)o1)N1CCCC1	inconclusive: 1.12 µM [inhibitor, single point]	
O=C(NCC1CCCO1)c1nn2cccnc2c1Cl (centres undefined)		inactive: 5.78%
O=C(COC(=O)Cn1cnc2ccccc2c1=O)Nc1ccc2c(c1)OCO2	inconclusive: 7.08 µM [activator, full curve, poor fit]	
C=CCc1cccc(/C=N/NC(=O)CCC(=O)Nc2ccc(C)cc2)c1O	inconclusive: 8.91 µM [inhibitor, partial curve]	
CCCCN(CCCC)S(=O)(=O)c1ccc(NC(=O)c2cccs2)cc1	active: 12.6 µM	
OC(CNCc1ccco1)Cn1c2ccc(Br)cc2c2cc(Br)ccc21 (centres undefined)	inconclusive: 35.5 µM [inhibitor, single point]	
Cc1ccc(C)c(S(=O)(=O)N2CCN(Cc3ccc(O)c4ncccc34)CC2)c1	inconclusive: 6.31 µM [inhibitor, full curve]	
CCn1c(SC)nnc1C1CCN(S(=O)(=O)c2ccc(OC)cc2)CC1	inconclusive: 5.62 µM [inhibitor, single point]	
COc1cccc(C2=CC(c3ccc(N(C)C)cc3)n3ncnc3N2)c1 (centres undefined)	inconclusive: 11.2 µM [inhibitor, single point]	
COc1ccccc1/C=c1\sc2nc(-c3ccco3)nn2c1=O	inconclusive: 1 µM [inhibitor, single point]	
Cc1nnc(-c2ccccc2)c(=O)n1/N=C/c1c(O)ccc2ccccc12	active: 3.16 µM	
Cc1cc(C)nc(N(C#N)CN2C(=O)c3ccccc3C2=O)n1		inactive: -3.89%

Random excerpt: three records from the list
SMILES	Potency	activity change, negative = inhibition
CCOC(=O)N(CC)OC(=O)Nc1ccc(Cl)cc1		inactive: -14.5%
Fc1ccc2nc(Nc3nc4c(F)cc(F)cc4s3)sc2c1	inconclusive: 3160 µM [inhibitor, partial curve, poor fit]	
CCN(CC(=O)Nc1ccccc1OC)CC(=O)Nc1ccccc1-c1ccccc1	inconclusive: 35.5 µM [inhibitor, single point]	

Structural class, those above with a cyano group.
SMILES	Potency	activity change, negative = inhibition
Cc1cc(Oc2ccc(C#N)cc2)nc(NCc2ccccc2)n1	inconclusive: 7.08 µM [inhibitor, partial curve]	
Cc1cc(C)nc(N(C#N)CN2C(=O)c3ccccc3C2=O)n1		inactive: -3.89%

Later entries

SMILES	Potency	activity change, negative = inhibition
O=C(CCN1C(=O)C2C3C=CC(C3)C2C1=O)N1CCN(c2cccc(Cl)c2)CC1 (centres undefined)		inactive: -6.87%
O=C(NCCC(c1ccccc1)c1ccccc1)c1cnc2sccn2c1=O	inconclusive: 3.16 µM [activator, full curve]	
CCS(=O)(=O)N1Cc2ccccc2CC1C(=O)Nc1nnc(SCc2ccc(C#N)cc2)s1 (centres undefined)	active: 12.6 µM	
O=c1[nH]c2ccsc2c(=O)n1-c1ccc(F)c(Cl)c1	inconclusive: 35.5 µM [inhibitor, single point]	
CC(NC(=O)COC(=O)Cc1ccc(-c2ccccc2)cc1)c1ccccc1 (centres undefined)		inactive: -4.87%
Cc1nn(Cc2ccc(C(=O)NC(C)(C)C)o2)c(C)c1Br	inconclusive: 7.08 µM [inhibitor, partial curve]	
CCOc1ccc(-n2c(SC(C)C)nc3c(c2=O)SCC3)cc1	inconclusive: 0.112 µM [activator, full curve, poor fit]	
CC(C)(C)c1ccc(S(=O)(=O)Nc2cccnc2)cc1	inconclusive: 15.8 µM [inhibitor, partial curve]	
Cc1nc2sc(C(c3ccco3)N3CC(C)OC(C)C3)c(O)n2n1 (centres undefined)	inconclusive: 12.6 µM [activator, partial curve]	
CCOc1ccc(C(C)=O)cc1N1C(=O)C2C3C=CC(O3)C2C1=O (centres undefined)	inconclusive: 15.8 µM [inhibitor, single point]	
O=C(Nc1nc(-c2ccc(Cl)s2)cs1)c1ccccc1	inconclusive: 35.5 µM [inhibitor, single point]	
CC(C)N(Cc1nccn1C)C(=O)CC1C(=O)NCCN1Cc1ccccc1C(F)(F)F (centres undefined)		inactive: 3.73%
CN1CCc2c(sc3c2c(=O)n(-c2ccccc2)c2nnc(SCc4ccc(Cl)cc4)n32)C1		inactive: 5.36%
COc1ccc(C(CC(=O)O)NC(=O)c2ccccc2)cc1OC (centres undefined)	inconclusive: 5.62 µM [inhibitor, single point]	
Cc1cccc(NC(=S)NCCC(C)C)c1		inactive: 4.35%
Cc1ccccc1/C=N/NC(=O)c1sccc1C		inactive: 2.97%
COc1ccc(Cl)cc1NC(=O)CN1CCCCCC1		inactive: -11.5%
CCCCC1C(=O)CC[C@H]2[C@@H]1CC(=O)[C@@H]2C/C=C\CCCC(=O)O (some centres undefined)	inconclusive: 20 µM [activator, single point]	
COc1ccc(N2CCN(C(c3cccs3)C(C)NS(=O)(=O)c3ccccc3)CC2)cc1 (centres undefined)	inconclusive: 10 µM [inhibitor, partial curve]	
CCC(C)Sc1nc2c(c(=O)n1C)SC(C)C2 (centres undefined)	inconclusive: 1.26 µM [activator, single point]	
N#C/C(=C\c1ccc(-c2cccc([N+](=O)[O-])c2)o1)c1nnc(N2CCOCC2)n1-c1ccccc1	inconclusive: 8.91 µM [inhibitor, partial curve]	
CC1CN(C(=O)COC(=O)c2ccc(Cl)nc2)CC(C)O1 (centres undefined)		inactive: 17.5%
O=C1OC(c2cccc([N+](=O)[O-])c2)C2(CCCC2)C(=O)C12CCCCC2 (centres undefined)		inactive: -11.6%
